Values from PubChem BioAssay AID602196 (INSERM, 2012).
The whole screen tested about 23,000 reagents; below is an unselected part. Of all reagents, 455 (2%) were called active. 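Active includes both protection and sensitisation; some change values fall well beyond the stated -50 to +50 range.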 No sequences are given here. Not given: the amount of reagent.

Screen: 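Knock-downs that protect lung cancer cells from cisplatin or sensitise them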
System: human A549 lung cancer cells
Reagents: siRNA pair against human genes
Duration: 48 h transfection before cisplatin; time from cisplatin to read-out not stated
Treatment: cisplatin at a dose killing half of control-siRNA cells; exact dose and duration not given
Detection: 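Cisplatin cell death as a shift from the 50% death seen with control siRNA; siRNAs toxic or growth-blocking alone scored 0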
Reading the numbers: two-siRNA summed score (-2 to +2): higher = both siRNAs protect from cisplatin killing; -2 means both sensitise; mean protection from cisplatin (shift in death) and protection from cisplatin (shift in death), siRNA C and protection from cisplatin (shift in death), siRNA D: higher = protection from cisplatin killing
Call rule: 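siRNAs harmful alone (LDH or WST-1) get 0; others get +1 for less and -1 for more cisplatin killing; genes are active when the two siRNAs give the same sign, summing to ±2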
Meaning of the calls: active = both siRNAs shift cisplatin killing the same way; inactive = no consistent shift, or siRNA harmful alone

The first 4 records, to show the layout:
| gene | two-siRNA summed score (-2 to +2) | mean protection from cisplatin (shift in death) (%) | protection from cisplatin (shift in death), siRNA C (%) | protection from cisplatin (shift in death), siRNA D (%) | outcome |
| --- | --- | --- | --- | --- | --- |
| ACTL6B | 0 | -14.8 | -19 | -10.7 | inactive |
| ZNF441 | 1 | 8 | 13.1 | 2.8 | inactive |
| NKIRAS1 | 0 | -1.1 | -2.3 | 0 | inactive |
| MOB2 | 0 | -17 | -22 | -11.9 | inactive |

The listing, from the first entry:
| gene | two-siRNA summed score (-2 to +2) | mean protection from cisplatin (shift in death) (%) | protection from cisplatin (shift in death), siRNA C (%) | protection from cisplatin (shift in death), siRNA D (%) | outcome |
| --- | --- | --- | --- | --- | --- |
| ACTL6B | 0 | -14.8 | -19 | -10.7 | inactive |
| ZNF441 | 1 | 8 | 13.1 | 2.8 | inactive |
| NKIRAS1 | 0 | -1.1 | -2.3 | 0 | inactive |
| MOB2 | 0 | -17 | -22 | -11.9 | inactive |
| WDR73 | 0 | -1.3 | 0.8 | -3.4 | inactive |
| ACBD6 | 0 | -4.8 | -8.6 | -0.9 | inactive |
| GDAP1 | 1 | 9.3 | -9.3 | 28 | inactive |
| CD300LB | 0 | 0.2 | -2.2 | 2.5 | inactive |
| ITGA6 | -1 | -21.7 | -20.3 | -23.2 | inactive |
| LOC390896 | 1 | 8.4 | 18.9 | -2.2 | inactive |
| DNM1L | 0 | 8.7 | 4.5 | 12.9 | inactive |
| STAT5A | -1 | 1.8 | -13.7 | 17.3 | inactive |
| FXR2 | 0 | 1.3 | 6.9 | -4.3 | inactive |
| PRR18 | 0 | 4.9 | 1.9 | 7.9 | inactive |
| FGF12 | 0 | 6 | 5.6 | 6.3 | inactive |
| GPT | 0 | 0.9 | 5.9 | -4 | inactive |
| YJEFN3 | 1 | 9.3 | 18.8 | -0.1 | inactive |
| LOC442408 | 0 | -0.4 | 7.5 | -8.4 | inactive |
| NLRP3 | 0 | -5.2 | 16.4 | -26.8 | inactive |
| LOC401051 | 0 | 3.4 | 5.2 | 1.7 | inactive |
| LOC388231 | 1 | 14.8 | 3.2 | 26.3 | inactive |
| MAGEC1 | 0 | -6.5 | -7.7 | -5.3 | inactive |
| OAS2 | 0 | 1.4 | -5.2 | 8 | inactive |
| MAST3 | 0 | 2.4 | 5.6 | -0.8 | inactive |
| LOC392979 | 0 | 10.2 | 14.8 | 5.7 | inactive |
| SNRPD3 | 0 | -3.4 | -8.9 | 2 | inactive |
| LOC286478 | 0 | 8 | 5.8 | 10.2 | inactive |
| HTR2A | 1 | 7.3 | -5.3 | 19.9 | inactive |
| TIMM13 | 0 | 2.3 | 7.1 | -2.4 | inactive |
| ARHGEF19 | 0 | 5.5 | -4.2 | 15.2 | inactive |
| OR5J2 | 0 | -6.2 | -6.9 | -5.4 | inactive |
| LOC388334 | 0 | -1.6 | -14.1 | 10.9 | inactive |
| PDE4B | 0 | 5.6 | 4.4 | 6.7 | inactive |
| RBPJL | -1 | -22.2 | -14.3 | -30.2 | inactive |
| ALS2 | 0 | 14.1 | -5 | 33.2 | inactive |
| BZW2 | 1 | 15.6 | 26.3 | 4.9 | inactive |
| PPAT | 0 | -11.3 | -10.6 | -12 | inactive |
| LOC440592 | 0 | 15.2 | 11.9 | 18.6 | inactive |
| PLXNC1 | 0 | -18.9 | -37.8 | 0 | inactive |
